These are yes or no findings as the source states them, for the method shown. In cells and extracts the contact can be indirect. A yes stands for co-enrichment or nearness to the bait. Other partners may have been found.
Target: FLAG–PD-L1 (RC213071) in the pCMV6-Entry vector (human) (UniProt Q9NZQ7)
Assay: affinity purification with mass spectrometry; PD-L1–interacting proteins in 293T cells overexpressing MIB2

Sequences of proteins named here, by UniProt entry; tags and fusion partners are left off. Residues count along the entry.
UniProt Q9NZQ7, residues 19-290: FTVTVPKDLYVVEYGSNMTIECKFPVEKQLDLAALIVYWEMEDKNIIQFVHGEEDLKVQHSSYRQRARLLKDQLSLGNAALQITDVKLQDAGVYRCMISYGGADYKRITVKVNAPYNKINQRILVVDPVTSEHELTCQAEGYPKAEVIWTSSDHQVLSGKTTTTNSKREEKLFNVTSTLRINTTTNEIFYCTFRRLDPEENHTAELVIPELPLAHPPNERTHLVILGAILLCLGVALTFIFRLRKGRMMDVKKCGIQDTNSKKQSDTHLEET
UniProt P61026: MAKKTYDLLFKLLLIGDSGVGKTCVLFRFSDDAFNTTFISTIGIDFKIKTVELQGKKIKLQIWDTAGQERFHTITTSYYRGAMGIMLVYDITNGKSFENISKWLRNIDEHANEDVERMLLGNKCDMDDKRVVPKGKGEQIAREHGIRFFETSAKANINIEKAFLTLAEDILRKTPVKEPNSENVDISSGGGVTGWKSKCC
UniProt P61006: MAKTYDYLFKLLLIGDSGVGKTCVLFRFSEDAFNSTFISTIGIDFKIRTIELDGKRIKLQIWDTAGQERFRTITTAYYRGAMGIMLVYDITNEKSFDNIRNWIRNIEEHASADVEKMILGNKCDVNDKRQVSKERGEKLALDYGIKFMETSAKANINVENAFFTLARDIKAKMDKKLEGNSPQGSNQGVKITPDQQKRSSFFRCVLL

Row | binding | Substance
1 | binds | RAB10 (from UniProt P61026 1-200)
2 | binds | RAB8A (from UniProt P61006 1-207)

— paper PMC9888393
